Assay results taken from patent US20140056964A1, “GRANZYME B INHIBITOR COMPOSITIONS, METHODS AND USES FOR PROMOTING WOUND HEALING” (THE UNIVERSITY OF BRITISH COLUMBIA, priority 2010, published 2014).
These are yes or no findings as the source states them, for the method shown. Some entries that bind do so weakly or less than the wild type. For some of these results: Tags and fused reporters may be left off the sequences shown.

Amino acid sequences for entries named in this document (tags omitted). Residues count along the entry.
UniProt P07585, residues 17-359: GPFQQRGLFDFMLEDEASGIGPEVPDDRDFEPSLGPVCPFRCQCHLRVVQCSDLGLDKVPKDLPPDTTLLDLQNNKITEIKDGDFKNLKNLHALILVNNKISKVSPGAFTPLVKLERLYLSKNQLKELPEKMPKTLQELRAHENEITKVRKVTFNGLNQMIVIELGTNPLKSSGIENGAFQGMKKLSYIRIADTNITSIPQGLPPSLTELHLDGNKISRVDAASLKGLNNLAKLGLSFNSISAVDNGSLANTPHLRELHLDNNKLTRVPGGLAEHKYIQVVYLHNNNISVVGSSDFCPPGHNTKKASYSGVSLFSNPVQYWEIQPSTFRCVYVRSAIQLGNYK
UniProt P01137, residues 279-390: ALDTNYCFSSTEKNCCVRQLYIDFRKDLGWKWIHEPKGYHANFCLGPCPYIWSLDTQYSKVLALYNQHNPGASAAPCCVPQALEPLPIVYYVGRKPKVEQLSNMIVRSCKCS

Columns and labels:
[1] = biological target: T1, recombinant human soluble betaglycan (human) (UniProt Q03167); test: TGF-β release assay on coated plates (FIG. 5)
T1 sequence (glycosaminoglycan chains (proteoglycan), sites not stated, looked up): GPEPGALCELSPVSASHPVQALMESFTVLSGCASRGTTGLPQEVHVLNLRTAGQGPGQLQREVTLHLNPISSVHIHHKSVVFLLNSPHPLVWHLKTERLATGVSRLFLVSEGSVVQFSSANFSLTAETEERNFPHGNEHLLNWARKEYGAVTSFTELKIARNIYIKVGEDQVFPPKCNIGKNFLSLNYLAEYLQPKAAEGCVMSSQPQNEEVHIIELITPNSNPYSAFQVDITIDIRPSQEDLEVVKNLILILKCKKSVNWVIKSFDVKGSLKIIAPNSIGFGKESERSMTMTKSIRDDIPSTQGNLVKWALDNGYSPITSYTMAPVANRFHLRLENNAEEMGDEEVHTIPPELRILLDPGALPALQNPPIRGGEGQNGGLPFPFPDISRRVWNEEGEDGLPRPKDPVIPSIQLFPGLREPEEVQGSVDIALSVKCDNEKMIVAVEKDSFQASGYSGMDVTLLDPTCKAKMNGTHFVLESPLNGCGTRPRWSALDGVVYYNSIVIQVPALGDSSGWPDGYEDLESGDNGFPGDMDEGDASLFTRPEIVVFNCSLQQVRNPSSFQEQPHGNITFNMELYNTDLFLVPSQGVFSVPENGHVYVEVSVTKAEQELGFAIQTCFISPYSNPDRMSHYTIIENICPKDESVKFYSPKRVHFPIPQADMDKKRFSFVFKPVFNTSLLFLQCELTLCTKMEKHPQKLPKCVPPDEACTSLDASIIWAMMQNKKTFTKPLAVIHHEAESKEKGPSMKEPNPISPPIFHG

[2] = biological target: T2, recombinant human biglycan (human) (UniProt P21810); test: TGF-β release assay on coated plates (FIG. 5)
T2 sequence (glycosaminoglycan chains (proteoglycan), sites not stated, looked up): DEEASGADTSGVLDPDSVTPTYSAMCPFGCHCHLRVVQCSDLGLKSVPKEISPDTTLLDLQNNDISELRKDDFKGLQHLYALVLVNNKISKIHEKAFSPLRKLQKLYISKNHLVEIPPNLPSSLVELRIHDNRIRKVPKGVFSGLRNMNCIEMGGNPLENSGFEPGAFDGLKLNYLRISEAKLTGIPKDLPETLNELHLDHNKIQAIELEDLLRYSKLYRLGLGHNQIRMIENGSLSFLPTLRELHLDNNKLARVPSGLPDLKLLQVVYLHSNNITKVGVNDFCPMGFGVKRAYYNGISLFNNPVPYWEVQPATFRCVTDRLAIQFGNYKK

[3] = biological target: recombinant human decorin (human) (UniProt P07585); test: TGF-β release assay on coated plates (FIG. 5)
[4] = biological target: T1, recombinant human soluble betaglycan (human); test: betaglycan coated on 48 well plates, incubated with TGF-β, washed; Western blot of supernatants after 24 h (FIG. 16)
[5] = biological target: T1, recombinant human soluble betaglycan (human); test: TGF-β1 added to proteoglycan coated on 48 well plates; Western blot of supernatants after 24 h
[6] = biological target: T2, recombinant human biglycan (human); test: as above
[7] = biological target: recombinant human decorin (human) (UniProt P07585); test: as above

binding [1]: binds
binding [2]: binds
binding [3]: binds
binding [4]: binds
binding [5]: binds
binding [6]: binds
binding [7]: binds
Substance: active TGF-β1 (from UniProt P01137 279-390) (ligand)
